Source: PubChem BioAssay AID1159594 (NIAID, 2016)

Screen: 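Which core toll-like receptor signalling genes are needed for TNF promoter activation by Pam2CSK4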
System: human THP-1 B5 reporter cells, PMA-differentiated into macrophage-like cells
Knock-down reagent: single siRNA against human genes
Duration: 48 to 72 hours after siRNA transfection; ligand exposure 4 hours
Treatment: Pam2CSK4 (TLR2/6 agonist) stimulation for 4 hours before lysis; dose not given
Measured: 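TNF promoter reporter signal as firefly to renilla luciferase ratio, scaled per plate by median and MAD, given as robust z-score against negative controls, averaged across replicates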
Reading the numbers: TNF reporter z-score: higher = stronger TNF promoter reporter activity
Active means: 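The depositor sorts siRNAs into z-score bands with cut-offs of 2.5, 2, 1.5 and 1; grade 50 and above, meaning |z| of 1.5 or more, counts as active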
Meaning of the calls: active = z-score beyond ±1.5 (either direction); inactive = z-score within ±1.5
Shown is a random part of 756 deposited reagents. Over the whole deposit, 130 (17%) were called active. 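Active calls cover both falls and rises of reporter activity; each row reflects one siRNA, not a gene-level verdict.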 The numbers tell different reagents against one gene apart. Reagent sequences are not shown. The record does not give: the amount of reagent.

| target | reagent | TNF reporter z-score, replicate mean | Call |
| --- | --- | --- | --- |
| TRAF3 (GeneID 7187) | 1 | 0.242 | inactive |
| TRAF3 (GeneID 7187) | 2 | 0.199 | inactive |
| TRAF3 (GeneID 7187) | 3 | -0.108 | inactive |
| TRAF3 (GeneID 7187) | 4 | -0.388 | inactive |
| TRAF3 (GeneID 7187) | 5 | -0.753 | inactive |
| TRAF3 (GeneID 7187) | 6 | 0.127 | inactive |
| PELI1 (GeneID 57162) | 1 | 0.369 | inactive |
| PELI1 (GeneID 57162) | 2 | -0.259 | inactive |
| PELI1 (GeneID 57162) | 3 | 0.504 | inactive |
| PELI1 (GeneID 57162) | 4 | -0.873 | inactive |
| PELI1 (GeneID 57162) | 5 | 0.143 | inactive |
| PELI1 (GeneID 57162) | 6 | -0.425 | inactive |
| RIPK3 (GeneID 11035) | 1 | 0.155 | inactive |
| RIPK3 (GeneID 11035) | 2 | -0.831 | inactive |
| RIPK3 (GeneID 11035) | 3 | 0.624 | inactive |
| RIPK3 (GeneID 11035) | 4 | -0.345 | inactive |
| RIPK3 (GeneID 11035) | 5 | -0.691 | inactive |
| RIPK3 (GeneID 11035) | 6 | -0.0617 | inactive |
| ITGAX (GeneID 3687) | 1 | -0.957 | inactive |
| ITGAX (GeneID 3687) | 2 | 0.147 | inactive |
| ITGAX (GeneID 3687) | 3 | -0.0702 | inactive |
| ITGAX (GeneID 3687) | 4 | -1.64 | active |
| ITGAX (GeneID 3687) | 5 | -1.42 | inactive |
| ITGAX (GeneID 3687) | 6 | -1.13 | inactive |
| DUSP2 (GeneID 1844) | 1 | 0.209 | inactive |
| DUSP2 (GeneID 1844) | 2 | -0.663 | inactive |
| DUSP2 (GeneID 1844) | 3 | -3.43 | active |
| DUSP2 (GeneID 1844) | 4 | -0.24 | inactive |
| DUSP2 (GeneID 1844) | 5 | -0.245 | inactive |
| DUSP2 (GeneID 1844) | 6 | 0.172 | inactive |
| IL12B (GeneID 3593) | 1 | -1.98 | active |
| IL12B (GeneID 3593) | 2 | -0.887 | inactive |
| IL12B (GeneID 3593) | 3 | -1.28 | inactive |
| IL12B (GeneID 3593) | 4 | -0.197 | inactive |
| IL12B (GeneID 3593) | 5 | -2.15 | active |
| IL12B (GeneID 3593) | 6 | -0.801 | inactive |
| ETS1 (GeneID 2113) | 1 | -0.22 | inactive |
| ETS1 (GeneID 2113) | 2 | -1.35 | inactive |
| ETS1 (GeneID 2113) | 3 | -0.617 | inactive |
| ETS1 (GeneID 2113) | 4 | -0.0105 | inactive |
| ETS1 (GeneID 2113) | 5 | 0.885 | inactive |
| ETS1 (GeneID 2113) | 6 | -1.54 | active |
| NFKB1 (GeneID 4790) | 1 | -1.74 | active |
| NFKB1 (GeneID 4790) | 2 | -0.788 | inactive |
| NFKB1 (GeneID 4790) | 3 | -1.18 | inactive |
| NFKB1 (GeneID 4790) | 4 | -0.51 | inactive |
| NFKB1 (GeneID 4790) | 5 | 0.636 | inactive |
| NFKB1 (GeneID 4790) | 6 | -0.505 | inactive |
